According to PMC5171793:

Biological target: GFP-tagged Smc3 (Smc3-GFP) (Drosophila)
Experiment: co-IP; 1 mg total protein extract of S2 cells expressing Smc3-GFP (control RNAi or san RNAi; actively dividing or arrested in metaphase with 25 μM colchicine for 12 hours) in NB buffer; GFP-Trap magnetic beads, 1 hr at 4 °C; western blot; cells with an empty plasmid as negative control

B1: Dalmatian/Sororin (protein, UniProt Q9VH89 1-857)
chain: MVRTRPVPCVPSPDVNTATRRNPGRPKKQSIGADLSTTISKPGRPKKLSIGADLTTIRKPGRPKKLGADLTTIIRKPGRPTKLSNKQSLTALNEPECRIRKCVVKIRRIKVKNGVVSEISRNDAPDVDASTFEPARNSTMYIPSKVQKSTQPQNIKENVAGPETSPCQQRIRSKSPSGPAAEISPKKPPRFFHRDQPLTRTRSSVTRNVFDFLSQSQIEDDSDREDPAADIIQRLVKDGKACVMVRSRKIGKPRAKRTAKKVRPVGNRRKVSTKDNEPEPVKVVPKSIEPRLQKPSRSLSTIFEPEEDYSNDSEHGYVQPIEVPVQVHVEPSTSKQAHEGAYSNLARSVMLNQTQAQNPLPSTDRRRELINMARQLVSTPLNRRAPPVTDVSATTTALSPIAHQSPNAVRTAGGKSPWRVSDDSPLPNTFMFGFNNSQMPSYSSDHVQRRHVYVPDSPVEHAENIPHEESICPPLHEQNHDSNANDSNEENRPPPTISKSMSINDQESEENAENFVHLPNPRRTLQKRTPFKDINILEVVTLPSWKKNVTATVSKEITPTRVAPRPMATSSPAQRSQTRSNLFGFDDDFACEDIPRKSTTPSKGIAPTSMSLNREVTPALANRNQTEVNTFGCNEILPCENIPKEKETNTEERTSSSQNLFGFDEFITESQDSPANFTGLSQNVNLHDKLHRLAELRPRDGELPQVSYTSIRSDCLGESHSKQTDIRYMLCSTMIAPPRPAKRKPAAPTARESMGLFRVDQDEPEQSFADKQPRRTYVKERPQRKRKKRVQILYIESESEDEDEQDSHDKSLDSPEKKRHHVKRPRRDIEHEAKLEQFVTSFNKQCEEVEKFPVIIE
B1 was tested, and the binding was “no binding”.

No constants are given. Whether binding was seen depends on the method and setting. Binding seen in cells or lysates may run through a third protein.
